Laboratory results from article PMC4595836.

Experiments:
[1] = molecular target: T1, ScbR (Streptomyces coelicolor A3(2) M145) (UniProt Q7AKF1); assay: EMSA; details: EMSA: 6-12 ng probe, ScbR 0.21-3.77 uM, ScbR2 0.207-4.15 uM; recombinant protein; protein details: His6 (pET23b-ScbR); probe letters rebuilt from the primers and the genome
T1 sequence (looked up, limits assumed): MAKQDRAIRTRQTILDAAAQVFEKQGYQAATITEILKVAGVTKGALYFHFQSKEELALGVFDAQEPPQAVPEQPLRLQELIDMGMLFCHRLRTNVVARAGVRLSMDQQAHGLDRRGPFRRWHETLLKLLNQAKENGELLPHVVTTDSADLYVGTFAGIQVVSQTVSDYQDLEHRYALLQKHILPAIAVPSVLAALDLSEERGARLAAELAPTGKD

[2] = molecular target: T1, ScbR (Streptomyces coelicolor A3(2) M145); assay: footprint; details: recombinant protein; protein details: His6 (pET23b-ScbR); flanks not given
[3] = molecular target: T2, ScbR2 (Streptomyces coelicolor A3(2) M145) (UniProt Q93S03); assay: footprint; details: recombinant protein; protein details: His6 (pET23b-ScbR2); flanks not given
T2 sequence (looked up, limits assumed): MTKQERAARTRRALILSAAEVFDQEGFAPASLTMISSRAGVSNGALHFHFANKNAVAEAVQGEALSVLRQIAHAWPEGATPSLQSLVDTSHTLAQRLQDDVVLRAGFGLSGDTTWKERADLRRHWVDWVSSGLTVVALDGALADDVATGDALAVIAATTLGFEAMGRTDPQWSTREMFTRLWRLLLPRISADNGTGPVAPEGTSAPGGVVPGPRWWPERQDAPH

| Sequence | binding result [1] | binding result [2] | binding result [3] |
| --- | --- | --- | --- |
| CGGGGAGCCCTGGATGTGCCGTGCCGGTGGTCTGCCGGGCGCGGCCGAAGCGGGAGCGGCTGAGCCCGTCCTGCAACGTCTCCGTGAAGCCGTCCTCCACGATGGCTCCCAGCCAGGTCATGCCGTGCTGGGGTGCGGGGGCAGAAGTGGCGCTCAACTGTCCTCCTCGATCTCGAAACAGGTCGGTCCAGGGAACATGGGATTAACAAACCTCCTCGCCGGTTTTCAATGGGAGAAGGTGTCCCCACCGTTGAACAACGTGGCGAGGTCGCCCTTGCCGTCTGTTTCGACGGCGGTGTCGAGCTGTTCGGACATGAGGGTGTCGTAGACGGGGCGTTCGACGGAGCGCAGGACGCCGATGGGGGTGTGGTGCAGGGTGTCGGGGTCGGCGAGGC (double strand) [sco6268 promoter (P6268)] | binds | – | – |
| TCCAGGGAACATGGGATTAACAAACCTCCTCGCCGGTTTTCAATGGGAGA (double strand) [sco6268] | – | binds | binds |

Protein sequences can lack the tags named with them. For part of these data: For at least one entry, the source does not settle the construct or the ends of the probe.
